Measured values as given in the supplement of paper PMC7666118.
The list shows a part of the results.

Chains of the proteins cited; added tags and fusions are not shown. Lines headed by an entry give the natural chain unless they say otherwise; changes in a name come on top.
UniProt Q8N4C8: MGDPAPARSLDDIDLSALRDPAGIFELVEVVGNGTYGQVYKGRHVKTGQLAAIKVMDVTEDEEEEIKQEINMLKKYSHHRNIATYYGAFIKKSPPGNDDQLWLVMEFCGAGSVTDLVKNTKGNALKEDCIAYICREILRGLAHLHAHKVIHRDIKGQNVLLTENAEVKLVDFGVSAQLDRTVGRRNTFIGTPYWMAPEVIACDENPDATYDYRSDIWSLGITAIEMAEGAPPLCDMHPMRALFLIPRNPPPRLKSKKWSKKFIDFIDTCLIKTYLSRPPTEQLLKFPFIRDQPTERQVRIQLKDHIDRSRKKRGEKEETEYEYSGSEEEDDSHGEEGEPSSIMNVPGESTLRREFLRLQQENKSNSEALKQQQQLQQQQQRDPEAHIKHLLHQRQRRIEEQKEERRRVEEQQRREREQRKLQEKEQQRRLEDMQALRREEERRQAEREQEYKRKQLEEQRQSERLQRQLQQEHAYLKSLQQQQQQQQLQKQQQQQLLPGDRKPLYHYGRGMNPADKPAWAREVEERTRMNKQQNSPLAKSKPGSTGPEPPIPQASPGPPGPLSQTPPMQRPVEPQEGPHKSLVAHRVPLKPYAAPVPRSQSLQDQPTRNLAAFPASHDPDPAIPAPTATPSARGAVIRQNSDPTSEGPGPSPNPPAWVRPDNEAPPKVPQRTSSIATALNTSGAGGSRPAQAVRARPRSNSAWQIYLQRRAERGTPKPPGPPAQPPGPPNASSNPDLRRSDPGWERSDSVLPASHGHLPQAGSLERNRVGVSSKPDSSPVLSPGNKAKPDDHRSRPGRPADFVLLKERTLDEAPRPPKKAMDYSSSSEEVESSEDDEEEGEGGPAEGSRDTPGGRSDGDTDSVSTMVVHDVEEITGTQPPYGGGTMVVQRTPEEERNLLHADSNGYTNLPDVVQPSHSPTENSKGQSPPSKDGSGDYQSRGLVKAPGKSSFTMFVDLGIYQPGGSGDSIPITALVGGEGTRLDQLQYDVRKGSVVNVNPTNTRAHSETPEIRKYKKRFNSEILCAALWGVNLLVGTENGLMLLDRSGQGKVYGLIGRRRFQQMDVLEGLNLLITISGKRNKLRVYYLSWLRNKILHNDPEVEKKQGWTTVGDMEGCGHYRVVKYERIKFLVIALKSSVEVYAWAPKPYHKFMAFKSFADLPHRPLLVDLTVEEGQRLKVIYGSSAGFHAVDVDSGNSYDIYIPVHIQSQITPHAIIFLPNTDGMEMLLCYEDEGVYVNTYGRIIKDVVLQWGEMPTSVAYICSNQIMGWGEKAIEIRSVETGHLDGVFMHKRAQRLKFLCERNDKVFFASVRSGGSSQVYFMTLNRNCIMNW
UniProt O14733: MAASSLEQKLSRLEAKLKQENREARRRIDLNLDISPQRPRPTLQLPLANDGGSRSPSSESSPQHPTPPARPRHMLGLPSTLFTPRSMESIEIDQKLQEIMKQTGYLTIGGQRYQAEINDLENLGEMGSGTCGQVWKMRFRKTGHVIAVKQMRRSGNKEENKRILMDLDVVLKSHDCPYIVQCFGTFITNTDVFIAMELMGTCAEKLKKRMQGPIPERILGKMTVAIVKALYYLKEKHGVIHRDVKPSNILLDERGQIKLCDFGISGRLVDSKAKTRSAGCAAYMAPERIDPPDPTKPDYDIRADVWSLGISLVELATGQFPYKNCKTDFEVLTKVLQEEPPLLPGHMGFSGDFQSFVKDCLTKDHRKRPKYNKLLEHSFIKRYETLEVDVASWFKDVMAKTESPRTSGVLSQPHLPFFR
UniProt Q13233: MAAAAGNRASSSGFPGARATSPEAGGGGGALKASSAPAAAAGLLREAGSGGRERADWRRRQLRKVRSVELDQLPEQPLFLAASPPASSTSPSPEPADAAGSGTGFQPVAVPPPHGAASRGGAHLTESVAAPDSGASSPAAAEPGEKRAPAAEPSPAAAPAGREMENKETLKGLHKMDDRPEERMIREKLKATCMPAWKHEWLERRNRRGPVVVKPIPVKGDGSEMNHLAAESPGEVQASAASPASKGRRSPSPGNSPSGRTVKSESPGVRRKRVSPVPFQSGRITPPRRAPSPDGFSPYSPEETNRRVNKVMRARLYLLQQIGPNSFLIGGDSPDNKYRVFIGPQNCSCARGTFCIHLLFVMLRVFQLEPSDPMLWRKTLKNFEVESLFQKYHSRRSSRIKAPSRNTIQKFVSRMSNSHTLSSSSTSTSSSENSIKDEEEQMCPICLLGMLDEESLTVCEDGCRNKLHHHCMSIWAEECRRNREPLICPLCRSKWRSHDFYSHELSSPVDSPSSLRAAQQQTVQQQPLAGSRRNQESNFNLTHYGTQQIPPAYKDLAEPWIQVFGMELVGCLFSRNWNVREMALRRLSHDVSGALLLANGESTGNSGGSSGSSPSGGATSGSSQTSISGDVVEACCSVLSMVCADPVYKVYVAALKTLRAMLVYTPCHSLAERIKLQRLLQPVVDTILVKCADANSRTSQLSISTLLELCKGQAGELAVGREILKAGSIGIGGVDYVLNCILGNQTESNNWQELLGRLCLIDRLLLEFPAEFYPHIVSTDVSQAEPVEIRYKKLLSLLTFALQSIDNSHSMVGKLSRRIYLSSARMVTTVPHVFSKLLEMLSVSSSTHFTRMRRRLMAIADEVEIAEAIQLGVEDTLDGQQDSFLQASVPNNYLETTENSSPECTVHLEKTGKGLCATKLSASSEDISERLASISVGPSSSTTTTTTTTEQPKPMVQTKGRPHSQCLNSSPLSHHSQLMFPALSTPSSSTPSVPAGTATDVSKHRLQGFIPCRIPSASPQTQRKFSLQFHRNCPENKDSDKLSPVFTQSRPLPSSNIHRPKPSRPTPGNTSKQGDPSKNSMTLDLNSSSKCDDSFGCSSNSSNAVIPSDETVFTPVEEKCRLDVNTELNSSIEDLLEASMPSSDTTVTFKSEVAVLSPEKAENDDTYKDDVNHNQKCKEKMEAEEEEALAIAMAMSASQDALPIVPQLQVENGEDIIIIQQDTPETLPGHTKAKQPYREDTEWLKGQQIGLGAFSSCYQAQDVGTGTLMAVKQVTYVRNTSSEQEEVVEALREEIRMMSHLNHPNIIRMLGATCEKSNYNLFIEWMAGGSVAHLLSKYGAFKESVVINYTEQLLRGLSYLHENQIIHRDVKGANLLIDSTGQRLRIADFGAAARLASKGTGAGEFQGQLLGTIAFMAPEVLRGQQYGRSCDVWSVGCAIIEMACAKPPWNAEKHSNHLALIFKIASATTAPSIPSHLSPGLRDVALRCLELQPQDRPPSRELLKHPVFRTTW
UniProt Q6P1Q9: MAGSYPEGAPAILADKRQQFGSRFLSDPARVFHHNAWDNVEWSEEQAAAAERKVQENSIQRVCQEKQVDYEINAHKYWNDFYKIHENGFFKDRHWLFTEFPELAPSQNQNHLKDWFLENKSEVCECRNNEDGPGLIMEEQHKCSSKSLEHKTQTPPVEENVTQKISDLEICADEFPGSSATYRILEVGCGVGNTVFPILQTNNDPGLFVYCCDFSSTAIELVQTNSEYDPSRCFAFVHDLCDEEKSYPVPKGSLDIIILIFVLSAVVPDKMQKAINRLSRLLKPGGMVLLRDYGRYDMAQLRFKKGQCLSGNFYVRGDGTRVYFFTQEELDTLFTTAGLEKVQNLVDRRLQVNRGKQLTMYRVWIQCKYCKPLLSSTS
UniProt Q66K74: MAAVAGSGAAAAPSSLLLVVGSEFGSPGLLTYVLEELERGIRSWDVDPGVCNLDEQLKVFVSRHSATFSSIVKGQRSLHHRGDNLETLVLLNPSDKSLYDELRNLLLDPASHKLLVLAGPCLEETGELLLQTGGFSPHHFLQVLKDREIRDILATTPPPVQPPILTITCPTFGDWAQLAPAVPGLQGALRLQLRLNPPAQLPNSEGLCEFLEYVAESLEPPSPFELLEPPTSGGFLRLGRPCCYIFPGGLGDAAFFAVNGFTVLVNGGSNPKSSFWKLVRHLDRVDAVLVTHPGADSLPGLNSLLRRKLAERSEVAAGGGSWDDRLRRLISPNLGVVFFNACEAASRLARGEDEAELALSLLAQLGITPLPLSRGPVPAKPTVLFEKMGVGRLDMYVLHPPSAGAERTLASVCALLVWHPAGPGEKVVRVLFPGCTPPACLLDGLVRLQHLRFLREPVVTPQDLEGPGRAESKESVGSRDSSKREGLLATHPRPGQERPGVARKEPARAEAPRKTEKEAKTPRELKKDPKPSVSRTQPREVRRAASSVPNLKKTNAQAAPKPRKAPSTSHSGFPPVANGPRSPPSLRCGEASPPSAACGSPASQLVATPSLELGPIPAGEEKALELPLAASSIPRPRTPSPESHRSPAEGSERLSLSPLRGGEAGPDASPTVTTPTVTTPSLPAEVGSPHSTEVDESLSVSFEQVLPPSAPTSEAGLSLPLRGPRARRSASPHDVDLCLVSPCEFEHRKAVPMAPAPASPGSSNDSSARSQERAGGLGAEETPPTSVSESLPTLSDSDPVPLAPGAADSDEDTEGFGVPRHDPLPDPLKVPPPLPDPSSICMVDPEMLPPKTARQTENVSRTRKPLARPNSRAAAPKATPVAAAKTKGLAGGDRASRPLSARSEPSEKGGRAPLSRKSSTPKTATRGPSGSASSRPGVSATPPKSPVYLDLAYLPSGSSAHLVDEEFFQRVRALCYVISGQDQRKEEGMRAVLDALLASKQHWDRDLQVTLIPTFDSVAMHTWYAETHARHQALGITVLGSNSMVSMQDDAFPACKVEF
UniProt Q99683: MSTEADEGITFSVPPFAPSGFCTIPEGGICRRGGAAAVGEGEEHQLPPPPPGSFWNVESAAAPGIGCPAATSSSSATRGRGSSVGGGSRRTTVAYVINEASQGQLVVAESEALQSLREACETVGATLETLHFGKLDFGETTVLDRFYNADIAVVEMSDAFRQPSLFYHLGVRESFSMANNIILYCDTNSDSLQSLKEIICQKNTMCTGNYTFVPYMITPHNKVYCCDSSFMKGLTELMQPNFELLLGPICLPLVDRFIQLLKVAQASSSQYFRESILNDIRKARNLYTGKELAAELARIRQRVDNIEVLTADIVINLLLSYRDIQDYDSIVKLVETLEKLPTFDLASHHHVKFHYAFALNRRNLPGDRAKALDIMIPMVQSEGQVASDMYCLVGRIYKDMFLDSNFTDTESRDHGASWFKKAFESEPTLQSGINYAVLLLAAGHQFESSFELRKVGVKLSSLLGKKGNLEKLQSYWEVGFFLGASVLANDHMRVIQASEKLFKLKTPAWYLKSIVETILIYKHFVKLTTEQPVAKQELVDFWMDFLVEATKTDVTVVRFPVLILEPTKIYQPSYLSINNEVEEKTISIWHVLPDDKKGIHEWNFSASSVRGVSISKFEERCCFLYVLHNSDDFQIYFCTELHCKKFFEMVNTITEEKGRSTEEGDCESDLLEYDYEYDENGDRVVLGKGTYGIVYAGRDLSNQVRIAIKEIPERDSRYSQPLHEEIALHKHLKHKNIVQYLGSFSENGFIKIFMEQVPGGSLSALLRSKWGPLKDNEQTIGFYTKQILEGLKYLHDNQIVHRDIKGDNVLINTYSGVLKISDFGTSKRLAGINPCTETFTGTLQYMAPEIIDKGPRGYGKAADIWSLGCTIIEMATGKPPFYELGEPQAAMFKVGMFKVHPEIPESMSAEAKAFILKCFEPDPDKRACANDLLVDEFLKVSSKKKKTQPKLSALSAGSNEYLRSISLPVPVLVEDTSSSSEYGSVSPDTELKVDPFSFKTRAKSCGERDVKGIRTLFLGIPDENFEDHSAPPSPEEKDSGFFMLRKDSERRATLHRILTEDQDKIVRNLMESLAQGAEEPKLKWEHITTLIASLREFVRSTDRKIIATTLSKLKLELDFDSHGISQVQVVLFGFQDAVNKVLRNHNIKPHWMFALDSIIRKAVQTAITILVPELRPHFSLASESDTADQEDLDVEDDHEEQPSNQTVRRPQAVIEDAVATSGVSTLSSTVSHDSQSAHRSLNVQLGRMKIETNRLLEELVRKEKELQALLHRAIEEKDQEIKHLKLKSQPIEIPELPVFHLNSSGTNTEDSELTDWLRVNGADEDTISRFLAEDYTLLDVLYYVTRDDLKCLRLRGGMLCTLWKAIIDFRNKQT
UniProt P49006: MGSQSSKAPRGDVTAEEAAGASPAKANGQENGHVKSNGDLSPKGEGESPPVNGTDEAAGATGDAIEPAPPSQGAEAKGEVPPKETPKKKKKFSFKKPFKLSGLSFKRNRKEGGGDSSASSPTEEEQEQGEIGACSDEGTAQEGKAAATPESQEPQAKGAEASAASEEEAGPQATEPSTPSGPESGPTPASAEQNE

compound: COc1ccc(Cn2ccc3ccc(C(=O)NO)cc32)cc1; assay: dose-dependent thermal stabilisation call (2D-TPP, DLPTP, 10% FDR) (binary (1 = stabilised)); higher = stabilised by the compound; details: system: HL-60 intact cells; concentration range 0.04-10 µM

Row | Target | dose-dependent thermal stabilisation call
1 | MINK1 (UniProt Q8N4C8) | inactive: 0
2 | MAP2K7 (UniProt O14733) | inactive: 0
3 | MAP3K1 (UniProt Q13233) | inactive: 0
4 | METTL2B (UniProt Q6P1Q9) | inactive: 0
5 | MAP1S (UniProt Q66K74) | inactive: 0
6 | MRP63 (UniProt Q9BQC6) | inactive: 0
7 | MAP3K5 (UniProt Q99683) | inactive: 0
8 | MLLT4 (UniProt P55196) | inactive: 0
9 | MARCKSL1 (UniProt P49006) | inactive: 0
10 | MED24 (UniProt O75448) | inactive: 0

2 records drawn at random from those above:
Row | Target | dose-dependent thermal stabilisation call
6 | MRP63 (UniProt Q9BQC6) | inactive: 0
10 | MED24 (UniProt O75448) | inactive: 0
